No constants are given. Whether binding was seen depends on the method and setting. Binding seen in cells or lysates may run through a third protein. These calls come from enrichment with a bait or labelling near it, and not all partners need be listed. For part of these data: No binding means not detected with the bait. For part of these data: Tags and fused reporters may be left off the sequences shown.
T1: GST-MPP2-SH3GK (mouse) (UniProt Q9WV34)
T1 sequence: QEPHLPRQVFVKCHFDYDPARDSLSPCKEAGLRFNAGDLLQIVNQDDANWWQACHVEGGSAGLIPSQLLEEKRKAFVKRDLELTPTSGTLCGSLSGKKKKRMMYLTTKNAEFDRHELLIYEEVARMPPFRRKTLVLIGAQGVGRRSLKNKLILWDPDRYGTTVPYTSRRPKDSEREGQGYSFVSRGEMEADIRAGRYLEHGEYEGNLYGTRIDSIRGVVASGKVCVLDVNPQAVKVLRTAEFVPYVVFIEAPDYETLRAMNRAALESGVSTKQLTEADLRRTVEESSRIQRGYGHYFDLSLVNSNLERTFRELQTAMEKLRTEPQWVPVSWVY

Protein sequences, listed by entry. Tags and fused reporters are not part of them. Residues count along the entry.
UniProt P31016, residues 403-724: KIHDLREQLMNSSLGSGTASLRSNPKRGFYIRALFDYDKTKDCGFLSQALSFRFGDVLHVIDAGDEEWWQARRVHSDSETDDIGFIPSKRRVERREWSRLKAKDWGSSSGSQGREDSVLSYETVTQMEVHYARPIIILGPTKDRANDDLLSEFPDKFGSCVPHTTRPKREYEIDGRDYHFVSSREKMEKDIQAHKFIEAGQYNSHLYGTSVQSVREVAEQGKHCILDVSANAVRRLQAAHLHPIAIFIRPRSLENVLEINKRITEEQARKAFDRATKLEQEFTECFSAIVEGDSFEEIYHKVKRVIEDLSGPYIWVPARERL
UniProt Q5XI81: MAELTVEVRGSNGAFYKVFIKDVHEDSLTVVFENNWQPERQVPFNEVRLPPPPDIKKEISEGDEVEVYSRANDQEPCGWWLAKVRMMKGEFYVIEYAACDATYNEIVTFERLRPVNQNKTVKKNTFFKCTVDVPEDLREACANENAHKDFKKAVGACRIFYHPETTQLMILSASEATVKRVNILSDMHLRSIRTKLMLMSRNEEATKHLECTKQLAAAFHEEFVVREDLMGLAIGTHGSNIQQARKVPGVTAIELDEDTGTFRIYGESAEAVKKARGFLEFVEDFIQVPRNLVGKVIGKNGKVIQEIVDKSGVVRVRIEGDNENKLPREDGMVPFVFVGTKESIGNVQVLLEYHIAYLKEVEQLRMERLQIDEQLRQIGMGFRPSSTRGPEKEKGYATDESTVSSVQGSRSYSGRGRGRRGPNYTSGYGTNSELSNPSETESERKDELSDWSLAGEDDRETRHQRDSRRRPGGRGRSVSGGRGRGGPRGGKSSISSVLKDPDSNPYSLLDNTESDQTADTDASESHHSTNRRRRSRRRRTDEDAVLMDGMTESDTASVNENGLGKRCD
UniProt P34926: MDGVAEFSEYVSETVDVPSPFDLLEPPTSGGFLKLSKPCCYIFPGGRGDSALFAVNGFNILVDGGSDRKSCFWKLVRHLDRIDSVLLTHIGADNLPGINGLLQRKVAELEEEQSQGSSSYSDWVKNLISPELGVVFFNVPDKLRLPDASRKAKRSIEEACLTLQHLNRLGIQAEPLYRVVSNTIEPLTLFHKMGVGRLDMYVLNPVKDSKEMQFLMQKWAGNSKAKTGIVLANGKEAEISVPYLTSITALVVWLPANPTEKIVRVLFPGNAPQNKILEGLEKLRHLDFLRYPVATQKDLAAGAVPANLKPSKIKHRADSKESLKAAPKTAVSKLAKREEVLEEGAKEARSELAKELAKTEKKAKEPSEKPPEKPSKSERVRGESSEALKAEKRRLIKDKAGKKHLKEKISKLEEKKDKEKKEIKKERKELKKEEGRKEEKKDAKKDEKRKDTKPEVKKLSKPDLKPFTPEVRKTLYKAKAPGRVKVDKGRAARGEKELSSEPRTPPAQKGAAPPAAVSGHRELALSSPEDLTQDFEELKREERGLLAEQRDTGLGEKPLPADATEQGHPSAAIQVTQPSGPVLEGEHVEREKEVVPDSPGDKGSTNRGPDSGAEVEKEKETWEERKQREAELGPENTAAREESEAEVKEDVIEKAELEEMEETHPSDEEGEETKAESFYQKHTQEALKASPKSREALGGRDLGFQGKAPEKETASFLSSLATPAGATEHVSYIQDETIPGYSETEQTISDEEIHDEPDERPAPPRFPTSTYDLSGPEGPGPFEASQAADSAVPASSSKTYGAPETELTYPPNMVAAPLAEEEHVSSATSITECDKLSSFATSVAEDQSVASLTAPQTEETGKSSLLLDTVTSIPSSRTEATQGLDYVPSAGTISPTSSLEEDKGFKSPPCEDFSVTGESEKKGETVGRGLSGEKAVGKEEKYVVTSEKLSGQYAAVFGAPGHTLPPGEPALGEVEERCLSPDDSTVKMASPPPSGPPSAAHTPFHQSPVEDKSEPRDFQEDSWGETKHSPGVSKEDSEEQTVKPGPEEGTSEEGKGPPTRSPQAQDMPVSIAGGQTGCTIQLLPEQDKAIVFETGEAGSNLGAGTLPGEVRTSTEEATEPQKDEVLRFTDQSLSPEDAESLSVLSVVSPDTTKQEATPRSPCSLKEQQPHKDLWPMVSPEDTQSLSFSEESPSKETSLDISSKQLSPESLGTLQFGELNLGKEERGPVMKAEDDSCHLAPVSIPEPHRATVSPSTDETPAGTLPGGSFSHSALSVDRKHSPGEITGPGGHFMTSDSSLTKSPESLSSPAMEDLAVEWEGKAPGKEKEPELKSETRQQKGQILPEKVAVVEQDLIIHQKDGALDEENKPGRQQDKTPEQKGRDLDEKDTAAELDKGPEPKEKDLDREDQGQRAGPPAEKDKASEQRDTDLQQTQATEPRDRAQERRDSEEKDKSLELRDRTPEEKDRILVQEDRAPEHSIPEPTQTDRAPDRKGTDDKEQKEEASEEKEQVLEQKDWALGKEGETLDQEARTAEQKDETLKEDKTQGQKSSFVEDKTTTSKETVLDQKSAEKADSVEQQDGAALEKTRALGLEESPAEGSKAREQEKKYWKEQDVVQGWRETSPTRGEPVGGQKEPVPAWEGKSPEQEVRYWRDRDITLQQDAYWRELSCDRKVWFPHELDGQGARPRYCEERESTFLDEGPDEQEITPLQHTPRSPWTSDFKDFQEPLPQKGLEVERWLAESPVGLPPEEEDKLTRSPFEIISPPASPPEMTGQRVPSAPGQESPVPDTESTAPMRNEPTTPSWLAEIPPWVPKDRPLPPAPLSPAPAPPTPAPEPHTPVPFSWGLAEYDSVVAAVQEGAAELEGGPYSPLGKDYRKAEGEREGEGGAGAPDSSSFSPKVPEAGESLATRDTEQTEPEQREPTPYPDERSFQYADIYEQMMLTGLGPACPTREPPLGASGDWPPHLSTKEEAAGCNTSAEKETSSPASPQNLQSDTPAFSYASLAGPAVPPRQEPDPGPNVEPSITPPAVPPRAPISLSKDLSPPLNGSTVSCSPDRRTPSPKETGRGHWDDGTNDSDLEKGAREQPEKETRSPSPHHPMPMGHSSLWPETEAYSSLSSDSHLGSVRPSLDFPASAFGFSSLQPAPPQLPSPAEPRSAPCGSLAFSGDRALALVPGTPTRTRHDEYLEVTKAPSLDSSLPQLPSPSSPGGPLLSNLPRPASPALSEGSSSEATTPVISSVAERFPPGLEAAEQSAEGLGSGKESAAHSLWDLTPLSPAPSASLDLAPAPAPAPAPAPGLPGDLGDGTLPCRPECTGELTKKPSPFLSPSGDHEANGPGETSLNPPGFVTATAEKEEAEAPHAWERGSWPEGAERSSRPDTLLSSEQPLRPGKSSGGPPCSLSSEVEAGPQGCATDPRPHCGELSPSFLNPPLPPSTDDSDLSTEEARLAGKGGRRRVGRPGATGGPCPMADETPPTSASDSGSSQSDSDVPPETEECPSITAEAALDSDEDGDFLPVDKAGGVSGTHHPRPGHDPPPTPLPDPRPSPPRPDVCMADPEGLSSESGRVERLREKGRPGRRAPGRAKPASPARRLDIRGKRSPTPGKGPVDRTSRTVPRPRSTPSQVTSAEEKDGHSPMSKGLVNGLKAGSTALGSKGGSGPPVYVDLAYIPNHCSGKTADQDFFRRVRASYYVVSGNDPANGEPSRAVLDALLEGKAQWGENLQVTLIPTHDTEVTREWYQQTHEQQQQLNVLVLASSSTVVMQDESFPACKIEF
UniProt P28471, residues 36-552: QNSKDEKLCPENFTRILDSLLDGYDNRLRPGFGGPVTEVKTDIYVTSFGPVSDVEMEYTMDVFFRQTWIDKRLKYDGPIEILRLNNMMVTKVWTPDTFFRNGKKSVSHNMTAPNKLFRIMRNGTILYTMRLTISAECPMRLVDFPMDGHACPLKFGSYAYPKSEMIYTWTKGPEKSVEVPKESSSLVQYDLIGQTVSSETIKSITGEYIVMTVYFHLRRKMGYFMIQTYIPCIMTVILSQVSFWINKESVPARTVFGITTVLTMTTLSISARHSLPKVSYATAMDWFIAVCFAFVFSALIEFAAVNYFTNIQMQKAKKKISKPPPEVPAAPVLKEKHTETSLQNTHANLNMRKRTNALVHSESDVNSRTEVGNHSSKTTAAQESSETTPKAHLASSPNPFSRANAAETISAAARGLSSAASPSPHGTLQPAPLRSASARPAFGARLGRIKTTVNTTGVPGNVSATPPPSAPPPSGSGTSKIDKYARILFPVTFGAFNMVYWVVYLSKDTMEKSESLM
UniProt P63138, residues 26-474: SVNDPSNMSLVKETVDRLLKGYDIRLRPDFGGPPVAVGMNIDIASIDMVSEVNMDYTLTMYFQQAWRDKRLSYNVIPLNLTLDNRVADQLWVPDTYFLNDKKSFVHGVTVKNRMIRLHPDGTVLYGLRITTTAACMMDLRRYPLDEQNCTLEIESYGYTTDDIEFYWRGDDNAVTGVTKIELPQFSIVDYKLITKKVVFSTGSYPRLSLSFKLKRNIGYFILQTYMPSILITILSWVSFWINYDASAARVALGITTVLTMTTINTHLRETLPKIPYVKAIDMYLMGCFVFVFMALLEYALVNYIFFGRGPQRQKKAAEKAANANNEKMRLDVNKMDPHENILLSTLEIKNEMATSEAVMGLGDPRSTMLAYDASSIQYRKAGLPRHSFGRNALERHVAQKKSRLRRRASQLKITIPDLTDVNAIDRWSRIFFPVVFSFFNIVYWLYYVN
UniProt P62813, residues 28-455: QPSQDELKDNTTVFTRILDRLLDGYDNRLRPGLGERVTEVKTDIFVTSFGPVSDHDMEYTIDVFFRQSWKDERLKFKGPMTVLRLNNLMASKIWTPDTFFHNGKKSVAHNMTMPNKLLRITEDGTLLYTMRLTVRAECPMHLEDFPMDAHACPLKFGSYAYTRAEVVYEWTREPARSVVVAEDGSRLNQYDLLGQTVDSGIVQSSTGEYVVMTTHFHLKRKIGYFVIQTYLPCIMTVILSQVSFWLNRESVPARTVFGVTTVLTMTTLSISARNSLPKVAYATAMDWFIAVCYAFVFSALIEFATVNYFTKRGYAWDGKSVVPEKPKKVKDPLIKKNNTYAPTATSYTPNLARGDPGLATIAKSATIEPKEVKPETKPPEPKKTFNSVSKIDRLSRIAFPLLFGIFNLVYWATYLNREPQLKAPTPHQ
UniProt P63079, residues 26-473: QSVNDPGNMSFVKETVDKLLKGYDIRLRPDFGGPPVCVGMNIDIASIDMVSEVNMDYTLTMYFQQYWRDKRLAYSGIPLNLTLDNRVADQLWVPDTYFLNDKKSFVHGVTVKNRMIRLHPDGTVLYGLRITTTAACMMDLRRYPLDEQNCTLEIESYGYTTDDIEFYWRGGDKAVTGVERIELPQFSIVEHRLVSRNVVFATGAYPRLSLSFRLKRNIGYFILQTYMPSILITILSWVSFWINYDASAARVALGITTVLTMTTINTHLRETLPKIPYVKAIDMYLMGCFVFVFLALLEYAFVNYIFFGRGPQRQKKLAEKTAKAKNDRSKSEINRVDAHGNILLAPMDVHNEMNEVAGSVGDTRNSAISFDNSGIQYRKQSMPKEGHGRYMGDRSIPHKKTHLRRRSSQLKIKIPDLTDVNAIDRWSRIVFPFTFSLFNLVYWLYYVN
UniProt P59215: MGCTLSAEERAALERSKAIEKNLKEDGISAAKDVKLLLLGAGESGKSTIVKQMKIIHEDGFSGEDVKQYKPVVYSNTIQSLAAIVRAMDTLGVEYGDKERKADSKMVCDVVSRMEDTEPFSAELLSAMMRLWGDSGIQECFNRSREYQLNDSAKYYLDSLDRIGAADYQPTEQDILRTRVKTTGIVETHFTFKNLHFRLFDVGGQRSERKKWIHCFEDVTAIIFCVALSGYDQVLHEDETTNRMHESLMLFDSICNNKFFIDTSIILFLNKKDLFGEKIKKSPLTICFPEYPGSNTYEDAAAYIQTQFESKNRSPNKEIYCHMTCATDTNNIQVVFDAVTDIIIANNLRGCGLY
UniProt Q5I6B8: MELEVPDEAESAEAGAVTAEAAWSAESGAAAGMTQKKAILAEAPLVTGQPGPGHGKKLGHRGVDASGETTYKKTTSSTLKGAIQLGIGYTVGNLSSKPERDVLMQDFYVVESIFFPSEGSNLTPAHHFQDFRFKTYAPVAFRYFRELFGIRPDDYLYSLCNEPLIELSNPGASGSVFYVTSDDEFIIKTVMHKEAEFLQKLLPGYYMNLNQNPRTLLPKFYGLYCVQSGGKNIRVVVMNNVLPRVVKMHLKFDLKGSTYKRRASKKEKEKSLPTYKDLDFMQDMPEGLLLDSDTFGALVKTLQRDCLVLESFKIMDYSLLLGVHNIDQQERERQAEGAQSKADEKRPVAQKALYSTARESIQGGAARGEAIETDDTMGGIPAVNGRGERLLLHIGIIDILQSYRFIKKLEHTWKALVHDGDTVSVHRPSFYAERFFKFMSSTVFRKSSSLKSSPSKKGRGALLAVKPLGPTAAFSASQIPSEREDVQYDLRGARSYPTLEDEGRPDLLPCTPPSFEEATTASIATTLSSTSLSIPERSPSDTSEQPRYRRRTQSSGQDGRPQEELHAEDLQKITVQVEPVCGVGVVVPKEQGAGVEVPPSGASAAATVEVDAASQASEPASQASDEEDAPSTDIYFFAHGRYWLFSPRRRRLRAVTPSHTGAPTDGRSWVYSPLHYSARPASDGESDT

B1: SynCAM 1, endogenous (protein, UniProt Q6AYP5-1 48-476)
chain: QNLFTKDVTVIEGEVATISCQVNKSDDSVIQLLNPNRQTIYFRDFRPLKDSRFQLLNFSSSELKVSLTNVSISDEGRYFCQLYTDPPQESYTTITVLVPPRNLMIDIQKDTAVEGEEIEVNCTAMASKPATTIRWFKGNKELKGKSEVEEWSDMYTVTSQLMLKVHKEDDGVPVICQVEHPAVTGNLQTQRYLEVQYKPQVQIQMTYPLQGLTREGDAFELTCEATGKPQPVMVTWVRVDDEMPQHAVLSGPNLFINNLNKTDNGTYRCEASNTVGKAHSDYMLYVYDPPTTIPPPTTTTTTTTTTTTTTTILTIITDTTATTEPAVHGLTQLPNSAEELDSEDLSDSRAGEEGAIGAVDHAVIGGVVAVVVFAMLCLLIILGRYFARHKGTYFTHEAKGADDAADADTAIINAEGGQNNSEEKKEYFI
B2: Arhgef2 (Rho guanine nucleotide exchange factor 2), endogenous (protein, UniProt Q5FVC2 1-985)
chain: MSRIESLTRARIDRSKEQATKTREKEKMKEAKDARYTNGHLFTTISVSGMTMCYACNKSITAKEALICPTCNVTIHNRCKDTLANCTKVKQKQQKAALLRNNTALQSVSLRSKTTTRERPTSAIYPSDSFRQSLLGSRRGLSSLSLAKSVSTTNIAGHFNDESPLGLRQILSQSTDSLNMRNRTLSVESLIDEGVEVFYNELMSDFEMDEKDFEADSWSLAVDSSFLQQHKKEVMKKQDVIYELIQTELHHVRTLKIMTRLFRTGMLEELQMEPEVVQGLFPCVDELSDIHTRFLSQLLERRRQALCPGSTRNFVIHRLGDLLISQFSGSNAEQMRKTYSEFCSRHTKALKLYKELYARDKRFQQFIRKMTRSAVLKRHGVQECILLVTQRITKYPVLINRILQNSHGIEEEYQDLAAALGLVKELLSNVDQDVHELEKEARLQEIYNRMDPRAQTPVPGKGPFGRDELLRRKLIHDGCLLWKTATGRFKDVLLLLMTDVLVFLQEKDQKYIFTSLDKPSVVSLQNLIVRDIANQAKGMFLISSGPPEMYEVHAASRDDRTTWIRVIQQSVRLCPSREDFPLIETEDKAYLRRIKTKLQQKNQALVELLQMNVELFAEMVHFQALKAGFIGMPPPTLPRGLFRLESFESLRGERLLKDALREVEGLKDLLLGPCVDLPLTAREPALPVEADSGSCPGVTANGEARTFNGSIELCRADSDSSQKDRNGNQLRSPQEEALQPLVNLYGLLQGLQAVVVQQERLMEALFPEGPERWEKLSRANSRDGEAGRAAVASVTPEKQATELALLQRQHSLLQEELRRCQRLGEERATEAGSLEARLRESEQARALLEREAEEIRRQLAALGQNEPLPAEAPWARRPLDPRRRSLPAGDALYLSFNPPQPSRGHDRLDLPVTVRSLHRPFDDREAQELGSPEDRLQDSSDPDTCSEEEVSSRLSPPHSPRDFTRMQDIPEETESRDGEPTASES
B3: Farp1 (FERM, ARHGEF, and pleckstrin domain-containing protein 1), endogenous (protein, UniProt F1LYQ8 1-1049)
chain: MGEIEQKPTPASRLGAPENSGISTLERGQKPPPTPSGKLMTVKIQMLDDTQEAFEVPQRAPGKVLFDAVCNHLNLVEGDYFGLEFPDHRKIVVWLDLLKPIVKQIRRPKHVLVKFVVKFFPPDHTQLQEELTRYLFALQVKQDLAQGRLTCNDTSAALLISHIVQSEIGDFDEALDREHLAKNKYVPQQDALEDKIVEFHHSHIGQTPAESDFQLLEVARRLEMYGIRLHPAKDREGTKINLAVANTGILVFQGFTKINAFNWAKVRKLSFKRKRFLIKLRPDVNSSYQDTLEFLMAGRDFCKSFWKICVEHHAFFRLFEEPKPKPKPVLFSRGSSFRFSGRTQKQVLDYVKEGGHKKVQFERKHSKIHSTRSLVSQPTAPNSEVPKQSPQSASLTFGEGTESPSAQSCQQAKETKVCTLEPGPRQSPALSKSPSGSKAADGTAAAAPPEEEDEEEGGKDGIRPSNPQPPQPSTGSLTGSPHLSELSINSQGGAAPANVTLSPNLSPDNKQASPLISPLLNDQACPRTDDEEEGRRKRFPTDKAYYIAKEVSTTERTYLKDLEVIASWFQSTVSKEDSMPEALKSLIFPNFEPLHKFHTNFLKEIEQRLALWEGRSNAHIRGDYQRIGDVMLKNIQGMKHLAAHLWKHSEALEALETSIKGSRRLEHFCRDFELQKVCYLPLNTFLLRPLHRLMHYKQVLERLCKHHPPNHADFRDCRAALAEITEMVAQLHGTMIKMENFQKLHELKKDLIGIDNLVIPGREFIRLGSLSKLSGKGLQQRMFFLFNDVLLYTSRGLTASNQFKVHGQLPLYGMTIEESEEEWGVPHCLTLRGQRQSIIVAASSRSEMEKWLEDIQMAIDLAEKSNGPTPELLASSPPDNKSPDEATAADQESEDDLSASRTSLERQAPHRGNTMVHVCWHRSTSVSMVDFSIAVENQLSGNLLRKFKNSNGWQKLWVVFTNFCLFFYKSHQDSHPLASLPLLGYSLTIPSESENIHKDYVFKLHFKSHVYYFRAESEYTFERWMEVIRSATSSASRAHSLSHKESHLY

The molecules below were run against GST-PSD-95-SH3GK (UniProt P31016) (assay: affinity purification with mass spectrometry; GST-SH3GK proteins on glutathione agarose, 3 hours with lysate of adult rat brain crude synaptosomes (1% Triton-X/PBS), 3 washes PBS/1% Triton X-100; SDS-PAGE, 16O/18O-labelling, nanoLC-MS/MS; duplicates with inverted labelling; only the target purified).

Row | binding | Molecule
1 | binds | Fxr1, endogenous (from UniProt Q5XI81 1-568)
2 | binds | Map1a, endogenous (from UniProt P34926 1-2774)

The molecules below were run against T1, GST-MPP2-SH3GK (mouse) in the same assay as above.

Row | binding | Molecule
3 | binds | GABAA receptor subunit α4, endogenous (from UniProt P28471 36-552)
4 | binds | GABAA receptor subunit β2, endogenous (from UniProt P63138 26-474)
5 | binds | GABAAR α1 (Gamma-aminobutyric acid receptor subunit alpha-1), endogenous (from UniProt P62813 28-455)
6 | binds | GABAAR β3 (Gamma-aminobutyric acid receptor subunit beta-3), endogenous (from UniProt P63079 26-473)
7 | binds | Gnao1 (Guanine nucleotide-binding protein G(o) subunit alpha), endogenous (from UniProt P59215 1-354)
8 | binds | Pip5k1c (Phosphatidylinositol 4-phosphate 5-kinase type-1 gamma), endogenous (from UniProt Q5I6B8 1-688) (enzyme)
9 | binds | Ppp3ca (Serine/threonine-protein phosphatase 2B catalytic subunit alpha isoform), endogenous (from UniProt P63329 1-521) (enzyme)

Molecular target: T1, GST-MPP2-SH3GK (mouse)
Assay: as above
Remark: another data set of the same source

Row | binding | Molecule
10 | no binding | B1
11 | binds | B2
12 | binds | B3
